Where a name gives a salt, the structure may show the parent alone. The list shows a part of the results. Hit calls seldom repeat between salt and free forms of one compound.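 Kinases were expressed as nanoluciferase fusions in K562 cells and luminescence was read every 4 h between 2 and 18 h as percent of control, DMSO set to 100% and a positive control to 0%. A time point counts as decreased when the signal drops significantly (2 sigma). The hit call is the authors' own, does not follow from the count of time points alone, and its rule is not shown.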
test system: BRAF_V600E; assay: kinase-Nluc reporter destabilization hit call (1 = scored as downregulated) (binary); higher = compound decreases kinase abundance; conditions: 2 µM; K562; 2-18 h

kinase-Nluc reporter destabilization hit call, inactive:
CCc1nc(C(N)=O)c(Nc2ccc(N3CCC(N4CCN(C)CC4)CC3)c(OC)c2)nc1NC1CCOCC1 [Gilteritinib] 0
CCc1nc(C(N)=O)c(Nc2ccc(N3CCC(N4CCN(C)CC4)CC3)c(OC)c2)nc1NC1CCOCC1 [Gilteritinib hemifumarate] 0
Cc1[nH]c(/C=C2\C(=O)Nc3ccc(F)cc32)c(C)c1C(=O)NCCN1CCCC1 [Toceranib (phosphate)] 0
Cc1[nH]c(/C=C2\C(=O)Nc3ccc(F)cc32)c(C)c1C(=O)NCCN1CCCC1 [Toceranib] 0

same assay, conditions: 2.5 µM; K562; 2-18 h

kinase-Nluc reporter destabilization hit call, inactive:
C=CC(=O)Nc1cc(Nc2nccc(-c3cn(C)c4ccccc34)n2)c(OC)cc1N(C)CCN(C)C [Osimertinib mesylate] 0
c1cc(-c2cnn3cc(-c4ccc(OCCN5CCCCC5)cc4)cnc23)ccn1 [Dorsomorphin] 0
CN(C)C/C=C/C(=O)Nc1cc2c(Nc3ccc(F)c(Cl)c3)ncnc2cc1O[C@H]1CCOC1 [Afatinib (dimaleate)] 0
C=CC(=O)Nc1cc(Nc2nccc(-c3cn(C)c4ccccc34)n2)c(OC)cc1N(C)CCN(C)C [Osimertinib] 0
CN(C)C(=O)c1cc2cnc(Nc3ccc(N4CCNCC4)cn3)nc2n1C1CCCC1 [Ribociclib hydrochloride] 0
COc1ccc(S(=O)(=O)Nc2ccccc2CN(C)C/C=C/c2ccc(Cl)cc2)cc1 [KN-92 (hydrochloride)] 0
COc1ccc(S(=O)(=O)Nc2ccccc2CN(C)C/C=C/c2ccc(Cl)cc2)cc1 [KN-92 (phosphate)] 0

same assay, conditions: 10 µM; K562; 2-18 h

kinase-Nluc reporter destabilization hit call, inactive:
CCS(=O)(=O)N1CCN(c2ccc(Nc3ncc(C(N)=O)c(NC4CC4)n3)cc2)CC1 [Cerdulatinib (hydrochloride)] 0
C[C@@H](N)c1ccc(C(=O)Nc2ccnc3[nH]ccc23)cc1 0
COc1ncc(F)cc1CNc1ccc(Cc2c[nH]c3ncc(C)cc23)c(F)n1 0
CCS(=O)(=O)N1CC(CC#N)(n2cc(-c3ncnc4[nH]ccc34)cn2)C1 [Baricitinib (phosphate)] 0
COC(=O)[C@H](CC(C)C)NC(=O)c1ccc(NC[C@@H](N)CS)cc1-c1cccc2ccccc12 [GGTI298 (Trifluoroacetate)] 0
COCCOc1cc(F)c2c(Nc3ccc(NC(=O)Cn4cc(C(C)C)nn4)cc3)ncnc2c1 [AZD3229 Tosylate] 0
CC(C)(C)n1nc(-c2cccc3ccccc23)c2c(N)ncnc21 [1-Naphthyl PP1] 0
N#CCNC(=O)c1ccc(-c2ccnc(Nc3ccc(N4CCOCC4)cc3)n2)cc1 [Momelotinib sulfate] 0
Cn1ncc(Cl)c1-c1cc(C(=O)N[C@H](CN)Cc2cccc(F)c2)sc1Cl [Afuresertib] 0
CNC(=O)c1ccc(Nc2ncc(C(F)(F)F)c(NCc3nccnc3N(C)S(C)(=O)=O)n2)cc1 [Defactinib] 0
O=C(O)c1ccc2c(c1)nc(Nc1cccc(Cl)c1)c1ccncc12 [Silmitasertib] 0
O=C(Nc1cnn2ccc(N3CCC[C@@H]3c3cc(F)ccc3F)nc12)N1CC[C@H](O)C1 [Larotrectinib] 0
COc1cc2nccc(Oc3ccc(NC(=O)C4(C(=O)Nc5ccc(F)cc5)CC4)cc3)c2cc1OC [Cabozantinib (S-malate)] 0
CN(C)C(=N)NC(=N)N [Metformin (hydrochloride)] 0
COc1ccnc(C[S+]([O-])c2nc3cc(-n4cccc4)ccc3[nH]2)c1C (configuration not stated) [Ilaprazole (sodium)] 0
C#Cc1cccc(Nc2ncnc3cc4c(cc23)OCCOCCOCCO4)c1 [Icotinib (Hydrochloride)] 0
CC(C)NC[C@@H](C(=O)N1CCN(c2ncnc3c2[C@H](C)C[C@H]3O)CC1)c1ccc(Cl)cc1 [Ipatasertib] 0
CC(=O)c1c(C)c2cnc(Nc3ccc(N4CCNCC4)cn3)nc2n(C2CCCC2)c1=O [Palbociclib (monohydrochloride)] 0
C#Cc1cccc(Nc2ncnc3cc(OCCOC)c(OCCOC)cc23)c1 [Erlotinib] 0
OCCn1cc(-c2cnc3nnn(Cc4ccc5ncccc5c4)c3n2)cn1 0
CCN(CC)CC(=O)Nc1c(C)cccc1C [Lidocaine] 0
CCS(=O)(=O)N1CCN(c2ccc(Nc3ncc(C(N)=O)c(NC4CC4)n3)cc2)CC1 [Cerdulatinib] 0
C#Cc1cccc(Nc2ncnc3cc(OCCOC)c(OCCOC)cc23)c1 [Erlotinib (Hydrochloride)] 0
O=C(c1ccc(F)c(F)c1Nc1ccc(I)cc1F)N1CC(O)([C@@H]2CCCCN2)C1 [Cobimetinib] 0
CC(C)(C)n1nc(-c2cccc3ccccc23)c2c(N)ncnc21 [1-Naphthyl PP1 (hydrochloride)] 0
CC(=O)c1c(C)c2cnc(Nc3ccc(N4CCNCC4)cn3)nc2n(C2CCCC2)c1=O [Palbociclib (isethionate)] 0

Quoted from the listing (three entries):
kinase-Nluc reporter destabilization hit call, inactive:
O=C(O)c1ccc2c(c1)nc(Nc1cccc(Cl)c1)c1ccncc12 [Silmitasertib] 0
O=C(Nc1cnn2ccc(N3CCC[C@@H]3c3cc(F)ccc3F)nc12)N1CC[C@H](O)C1 [Larotrectinib] 0
COc1cc2nccc(Oc3ccc(NC(=O)C4(C(=O)Nc5ccc(F)cc5)CC4)cc3)c2cc1OC [Cabozantinib (S-malate)] 0

— the supplement of paper PMC12823440, “Inhibitors supercharge kinase turnover through native proteolytic circuits” (Nature, 2025)
